Results are given in words; binding and its absence hold for the method and conditions named. For some assays here: Binding calls can cover weak binding; strength is not graded here. Tags and fused reporters may be left off the sequences shown.
What was measured:
Test in all cases: two-hybrid; GAL4 system, pGBKT7 baits (BES1 and deletions) and pGADT7 prey (AGB1) in strain AH109; growth on SD-T-L-H-A plates, 5 days
BD-BES1ΔP (Arabidopsis) = target: BD-BES1ΔP (Arabidopsis)
[1] = target: BD-BES1ΔPEST (Arabidopsis)
BD-BES1ΔC (Arabidopsis) = target: BD-BES1ΔC (Arabidopsis)
BD-BES1ΔN (Arabidopsis) = target: BD-BES1ΔN (Arabidopsis)
[2] = target: BD-BES1ΔNLS (Arabidopsis)

binding (BD-BES1ΔP (Arabidopsis)): no binding
binding [1]: no binding
binding (BD-BES1ΔC (Arabidopsis)): binds
binding (BD-BES1ΔN (Arabidopsis)): binds
binding [2]: binds
B1: GAL4 AD fused to full-length AGB1 (AD-AGB1) (protein, UniProt P49177 1-377)
chain: MSVSELKERHAVATETVNNLRDQLRQRRLQLLDTDVARYSAAQGRTRVSFGATDLVCCRTLQGHTGKVYSLDWTPERNRIVSASQDGRLIVWNALTSQKTHAIKLPCAWVMTCAFSPNGQSVACGGLDSVCSIFSLSSTADKDGTVPVSRMLTGHRGYVSCCQYVPNEDAHLITSSGDQTCILWDVTTGLKTSVFGGEFQSGHTADVLSVSISGSNPNWFISGSCDSTARLWDTRAASRAVRTFHGHEGDVNTVKFFPDGYRFGTGSDDGTCRLYDIRTGHQLQVYQPHGDGENGPVTSIAFSVSGRLLFAGYASNNTCYVWDTLLGEVVLDLGLQQDSHRNRISCLGLSADGSALCTGSWDSNLKIWAFGGHRRVI
